27 molecules from PubChem BioAssay AID248 (DTP/NCI, 2004) can be followed below.

For this assay, the system named is L1210 leukemia ip in BDF1 mice, survival T/C. Kind of assay: NCI In Vivo Anticancer Drug Screen. Data for tumor model L1210 Leukemia (intraperitoneal) in B6D2F1 (BDF1) mice. To be noted: T/C endpoint: mean survival time, higher T/C = longer survival.
Where [1] appears, read: dose: 300.0 mg/kg/injection, schedule: Q01DX001 (ip), vehicle: carboxymethylcellulose (CMC).
The mark [2] stands for this setting: dose: 100.0 mg/kg/injection, schedule: Q01DX009 (ip), vehicle: saline with Tween-80.
The mark [3] stands for this setting: dose: 200.0 mg/kg/injection, schedule: Q01DX009 (ip), vehicle: saline with Tween-80.
The mark [4] stands for this setting: dose: 400.0 mg/kg/injection, schedule: Q01DX009 (ip), vehicle: saline with Tween-80.
[5] abbreviates: dose: 200.0 mg/kg/injection, schedule: Q04DX003 (ip), vehicle: saline.
The mark [6] stands for this setting: dose: 400.0 mg/kg/injection, schedule: Q04DX003 (ip), vehicle: saline.
[7] abbreviates: dose: 200.0 mg/kg/injection, schedule: Q01DX001 (ip), vehicle: water.
The mark [8] stands for this setting: dose: 200.0 mg/kg/injection, schedule: Q01DX001 (ip), vehicle: saline.
The mark [9] stands for this setting: dose: 400.0 mg/kg/injection, schedule: Q01DX001 (ip), vehicle: saline.
[10] abbreviates: dose: 400.0 mg/kg/injection, schedule: Q01DX009 (ip), vehicle: Klucel (hydroxypropylcellulose) (HPC).

The list is a part of this screen's results and no random one: it gathers tests that were run many times, whatever their T/C, doses with no T/C, and many T/C values between a quarter and a half above the control. Other doses and runs of a compound stand elsewhere. T/C is the treated group as % of the vehicle group. Some doses have a count of surviving animals in place of a T/C: the source files T/C as zero there, which appears to mark a toxic dose or a test without result, not a measured value. Some doses without a T/C left all or most animals alive at the check, yet need not have been tolerated: survival well below the control is almost never listed, so the zero probably covers shortened survival too. Counts of survivors are from the toxicity check (mostly the fifth day) where no day follows; animals may have died later. Schedules are NCI's codes, read here as Q, the interval in days (D) or hours (H), X, the number of doses. Some doses were run more than once; their values stand side by side, smallest first. Some schedules carry Z or #; the key to these is not given. For survival time, the PubChem record calls one and a half times the control and up active, and a quarter to a half above the control has no call in these data; cut-offs in other NCI protocols can differ. Additions like (4×) stand for listed records that agree.

Take `O=NN(CCCl)C(=O)NC1CS(=O)(=O)CS(=O)(=O)C1`: the T/C is, setting by setting: (dose: 3.12 mg/kg/injection, schedule: Q01DX001 (ip), vehicle: other) 136 % of control; (dose: 100.0 mg/kg/injection, schedule: Q01DX001 (ip), vehicle: other) 137 % of control. Also, the survivor count (dose: 150.0 mg/kg/injection, schedule: Q01DX001 (ip), vehicle: other) is recorded as 8 of 10.

Regarding `COC(CC[P+](c1ccccc1)(c1ccccc1)c1ccccc1)(C(=O)c1ccccc1)c1ccccc1` (configuration not stated), the survivor count (dose: 75.0 mg/kg/injection, schedule: Q01DX001 (ip), vehicle: carboxymethylcellulose (CMC)) is listed as 0 of 6; the survivor count (dose: 150.0 mg/kg/injection, schedule: Q01DX001 (ip), vehicle: carboxymethylcellulose (CMC)) is recorded as 0 of 6; the survivor count under setting [1] is 0 of 6.

With `Cc1ccc(C)c(NC(=S)NC(=O)c2ccc(Cl)cc2Cl)c1`, the T/C by setting is: under setting [2], 93 (2×), 95, 101 % of control; under setting [3], 92, 93, 110 % of control; under setting [4], 93, 95, 96, 99 % of control. Moreover, under setting [3], the survivor count is listed as 6 of 6.

In the case of `Cc1cccc(NCC(=O)NN)c1C`, the survivor count (dose: 100.0 mg/kg/injection, schedule: Q04DX002 (ip), vehicle: Klucel (hydroxypropylcellulose) (HPC)) was 2 of 3 and the survivor count (dose: 200.0 mg/kg/injection, schedule: Q01DX009 (ip), vehicle: carboxymethylcellulose (CMC)) is reported as 1 of 3.

Turning to `Cc1cc(Cl)c2ccccc2[n+]1C`, the survivor count under setting [5] is 0 of 6 and the survivor count under setting [6] is reported as 0 of 6.

In the case of `O=C1C=C(O)C2=C(CCCC2)C1=O`, the survivor count by setting is: under setting [7], 1 of 6; (dose: 400.0 mg/kg/injection, schedule: Q01DX001 (ip), vehicle: water) 0 of 6.

In the case of `C=C1CC(C)(c2ccc(CCCC(=O)OCC)cc2)OC1=O` (configuration not stated), the survivor count (dose: 400.0 mg/kg/injection, schedule: Q04DX003 (ip), vehicle: saline with Tween-80) is recorded as 5 of 6.

As for `CCCCCCCCCCCCCCCCOC(=O)C[n+]1cccc(C(N)=O)c1`, the survivor count under setting [6] was 2 of 6.

In the case of `O=C(CCN1CCCCC1)c1cccc([N+](=O)[O-])c1`, the survivor count is given as 0 of 6 (dose: 100.0 mg/kg/injection, schedule: Q04DX003 (ip), vehicle: saline); 0 of 6 under setting [5]; 0 of 6 under setting [6].

On to `CN1CCC2(CC1)SSC1(CCN(C)CC1)S2`, for which, under setting [6], the survivor count is recorded as 2 of 6.

As for `COC(CBr)c1ccccc1` (configuration not stated), the survivor count reads like this: (dose: 150.0 mg/kg/injection, schedule: Q01DX009 (ip), vehicle: Klucel (hydroxypropylcellulose) (HPC)) 0 of 6; (dose: 225.0 mg/kg/injection, schedule: Q01DX009 (ip), vehicle: Klucel (hydroxypropylcellulose) (HPC)) 0 of 6; (dose: 335.0 mg/kg/injection, schedule: Q01DX009 (ip), vehicle: Klucel (hydroxypropylcellulose) (HPC)) 0 of 6.

Consider `CCOC(=O)CCCS`, for which the survivor count under setting [1] is on record as 0 of 6.

In the case of `COc1ccc2c3c(c4cc(OC)c(OC)cc4c2c1)C[C@H]1CCCCN1C3`, where the note is “dose: 1.0 mg/kg/injection, schedule: Q01DX Z (ip), vehicle: other”, the T/C was 140 % of control. Further, the survivor count runs as follows: (dose: 1.5 mg/kg/injection, schedule: Q01DX Z (ip), vehicle: saline) 5 of 6; (dose: 2.0 mg/kg/injection, schedule: Q01DX Z (ip), vehicle: carboxymethylcellulose (CMC)) 0 of 6; (dose: 4.0 mg/kg/injection, schedule: Q01DX Z (ip), vehicle: carboxymethylcellulose (CMC)) 0 of 6; (dose: 8.0 mg/kg/injection, schedule: Q01DX001 (ip), vehicle: saline) 1 of 4.

Turning to `O=C(Nc1ccccc1Cl)Oc1ccc(Cl)cc1Cc1ccccc1`, the survivor count under setting [4] is given as 3 of 6.

For `Cc1cccc(-n2c(N)cc(=O)[nH]c2=S)n1`, the survivor count (dose: 200.0 mg/kg/injection, schedule: Q01DX009 (ip), vehicle: saline) is 0 of 6.

For the molecule `CC(=O)Nc1ccc(OCCOC(=O)Nc2ccc(C)c([N+](=O)[O-])c2)cc1`, the survivor count under setting [2] is 3 of 3.

With `CN(C)C(C#N)C(=O)c1ccccc1` (configuration not stated), the survivor count reads like this: under setting [8], 1 of 6 and 6 of 6; under setting [9], 3 of 6.

Turning to `CC(C)(C)N1CCC1CO` (configuration not stated), the survivor count (dose: 300.0 mg/kg/injection, schedule: Q01DX001 (ip), vehicle: saline) is listed as 3 of 6.

On to `O=C(CN1CCCCC1Cl)c1ccccc1` (configuration not stated), for which the survivor count is 0 of 6 under setting [8], 2 of 6 under setting [5], 0 of 6 under setting [9] and 0 of 6 under setting [6].

In the case of `CC(C)CP(=O)(CC(C)C)C1CCCC1`, the survivor count (dose: 400.0 mg/kg/injection, schedule: Q01DX001 (ip), vehicle: saline with Tween-80) is listed as 1 of 6.

Take `[N-]=[N+]=[N-]`: the survivor count is recorded as 0 of 4 (dose: 40.0 mg/kg/injection, schedule: Q01DX001 (ip), vehicle: saline); 0 of 6 (dose: 62.0 mg/kg/injection, schedule: Q01DX015 (ip), vehicle: saline); 0 of 4 (dose: 80.0 mg/kg/injection, schedule: Q01DX001 (ip), vehicle: saline); 0 of 6 (dose: 125.0 mg/kg/injection, schedule: Q01DX015 (ip), vehicle: saline); 0 of 6 (dose: 250.0 mg/kg/injection, schedule: Q01DX015 (ip), vehicle: saline); 0 of 6 (dose: 500.0 mg/kg/injection, schedule: Q01DX015 (ip), vehicle: saline).

In the case of `O=C(c1ccccc1CO)N1CCCCC1`, under “dose: 400.0 mg/kg/injection, schedule: Q04DX002 (ip), vehicle: Klucel (hydroxypropylcellulose) (HPC)”, the survivor count is given as 3 of 3.

Turning to `CC(C)=CCC(=O)NCC(CCN1CCCCC1)(c1cccc2ccccc12)C(C)C` (configuration not stated), the survivor count by setting is: (dose: 100.0 mg/kg/injection, schedule: Q01DX003 (ip), vehicle: saline with Tween-80) 0 of 6; (dose: 200.0 mg/kg/injection, schedule: Q01DX003 (ip), vehicle: saline with Tween-80) 2 of 6; under setting [10], 0 of 6.

`C=C1C(=O)OC2CC(C)C(C(O)CC(C)O)=CCC12` (configuration not stated): the survivor count under setting [7] is reported as 1 of 6.

Consider `O=C(Nc1cccc(Cl)c1)OCC#CCCl`, for which the survivor count was 6 of 6 (dose: 100.0 mg/kg/injection, schedule: Q01DX001 (ip), vehicle: saline sonified) and 6 of 6 (dose: 200.0 mg/kg/injection, schedule: Q01DX001 (ip), vehicle: saline sonified).

As for `COc1cccc(NC(=O)CCC(=O)O)c1`, the survivor count under setting [2] was 6 of 6.

On to `CCCSc1ccc2c3c(cccc13)C(=O)OC2=O`, for which, under setting [10], the survivor count is given as 4 of 6.
